The series can be described thus: Double antibody radioimmunoassay (RIA) for HPLB-II in biological fluids. Further details: species or system human. Here is the method:
A double antibody radioimmunoassay (RIA) was developed for the measurement of HPLB-II. HPLB-II was labeled with ^125I by the chloramine-T method. Free ^125I was separated from labeled protein by gel filtration on a Sephadex G-25 column. Before RIA incubation, the labeled antigen was diluted in assay buffer (50 mM sodium phosphate, pH 7.4, containing 80 mM NaCl, 10 Mm Na-EDTA, 0.2% Bovine serum albumin, 0.02% NaN3 0.2% CTAB and 0.5% Tween 20) to 38000±2000 cpm/100 μl (tracer). A 50 μl solution of either sample or standard (2-128 μl/l) was sequentially mixed with 50 μl of labeled HPLB-II (tracer), 50 μl of specific antibodies raised in rabbit (diluted 1:60000 in assay buffer) and incubated for 3 h at room temperature. Thereafter, 0.5 ml of decanting suspension containing Sephadex anti-rabbit IgG raised in sheep were added and the incubation continued for 1 h at 4° C. HPLB-II-antibody complexes bound on Sephadex anti-rabbit IgG were separated and pelleted by centrifugation at 18° C. for 15 min at 4000 rpm. After decantation, the radioactivity was measured in a gamma counter.

B1: HPLB-II: Novel phospholipase B from human neutrophil granules; about 130 kDa oligomer of 25 and 45 kDa fragments of hypothetical protein FLJ22662 (protein)
chain 1: MPAEKTVQVKNVMDKNGDAYGFYNNSVKTTGWGILEIRAGYGSQTLSNEIIMFVAGFLEGYLTAPHMNDHYTNLYPQLITKPSIMDKVQDFMEKQDKWTRKNIKEYKTDSFWRHTGYVMAQIDGLYVGAK
chain 2: VLPGFENILFAHSSWYTYAAMLRIYKHWDFNIIDKDTSSSRLSFSSYPGFLESLDDFYILSSGLILLQTTNSVFNKTLLKQVIPETLLSWQRVRVANMMADSGKRWADIFSKYNSGTYNNQYMVLDLKKVKLNHSLDKGTLYIVEQIPTYVEYSEQTDVLRKGYWPSYNVPFHEKIYNWSGYPLLVQKLGLDYSYDLAPRAKIFRRDQGKVTDTASMKYIMRYNNYKKDPYSRGDPCNTICCREDLNSPNPSPGGCYDTKVADIYLASQYTSYAISGPTVQGGLPVFRWDRFNKTLHQGMAEVYNFDFITMKPILK
B1: the “level in intestinal fluid of patients with inflammatory bowel disease” value fell in the range of 22 to 52 µg/L, the “level in lung lavage fluids of patients with chronic obstructive pulmonary disease” value was 1 to 21 µg/L and the “level in serum of patients with acute bacterial infections” value lay in the range of 3 to 9 µg/L. In addition, the “level in normal serum” value (limit of detection 1 μg/L) was “undetectable”.

These data come from patent US8288112B2, “Protein, an antibody and measurement of the protein” (P&M Venge AB, priority 2006, dated 2012).
